From the supplement of paper PMC8256030
Several values for one entry are separate records, joined by “and”; a condition that tells them apart may be missing. Identical values can stand only once. Counter-ions that a name gives are not always drawn. Some of the results follow. This data set is noisy: repeats of one test often differ as much as different tests do.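 HEK293T cells were given each compound shortly before transfection with a reporter in which red mCherry is followed by the SARS-CoV-2 frameshift element and then GFP in the −1 frame, so GFP appears only after frameshifting.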

Columns and labels:
[1] = test system: SARS-CoV-2 -1 PRF reporter mCherry-FSE-GFP(-1); experiment: mCherry (red) intensity as percent of control; higher = higher upstream reporter expression; settings: 10 µM; 24 h; HEK293T
[2] = test system: SARS-CoV-2 -1 PRF reporter mCherry-FSE-GFP(-1); experiment: percent effect, decrease of GFP/mCherry ratio (-1 PRF reporter) relative to controls; higher = stronger frameshift inhibition; settings: 10 µM; 24 h; HEK293T

Row | SMILES | mCherry [1] | percent effect [2]
1 | NC12CC3CC(CC(C3)C1)C2 [Amantadine·HCl] | 110% | -3.31%
2 | CCCCCC[C@@H](CCC)C(=O)O [arundic acid] | 95.3% | -0.686%
3 | CCC(=O)OCC(=O)[C@@]1(OC(=O)CC)[C@H](C)C[C@H]2[C@H]3[C@H]([C@@H](O)C[C@@]21C)[C@@]1(C)C=CC(=O)C=C1C[C@H]3Cl [Alclometasone] | 92.6% | -1.22%
4 | NC(=O)c1cc[n+](CC2=C(C(=O)O)N3C(=O)[C@@H](NC(=O)[C@@H](c4ccccc4)S(=O)(=O)[O-])[C@H]3SC2)cc1 | 98.1% | -0.12%
5 | N[C@H](Cc1cc(I)c(Oc2cc(I)c(O)c(I)c2)c(I)c1)C(=O)O [Choloxin] | 102% | -3.11%
6 | O=C(O)COc1ccccc1/C=N/NC(=O)c1ccncc1 [aconiazide] | 147% | -9.61%
7 | C=C1/C(=C\C=C2/CCC[C@]3(C)[C@@H]([C@H](C)CC[C@@H](O)C(C)C)CC[C@@H]23)C[C@@H](O)C[C@@H]1O [tacalcitol] | 47.7% | 1.79%
8 | O=C(/C=C/c1ccc(CN(CCO)CCc2c[nH]c3ccccc23)cc1)NO [dacinostat] | 17.5% | -7.57%
9 | O=C(Nc1c(Cl)cncc1Cl)c1ccc(OC(F)F)c(OCC2CC2)c1 [roflumilast] | 82.8% | -2.15%
10 | CCCCC(=O)O[C@]1(C(=O)CO)[C@@H](C)C[C@H]2[C@@H]3CCC4=CC(=O)C=C[C@]4(C)[C@@]3(F)[C@@H](O)C[C@@]21C | 95.1% | 0.515%
11 | CCCCCCCC/C=C\CCCCCCCC(=O)O.NCCO | 107% | -2.67%
12 | CCOC(=O)c1ccc(N)cc1 [benzocaine] | 139% | 2.26%
13 | NCCCC(O)(P(=O)(O)O)P(=O)(O)O [Alendronate] | 60.4% | -8.26%
14 | COc1cc([C@@H]2Oc3c(O)cc([C@H]4Oc5cc(O)cc(O)c5C(=O)[C@@H]4O)cc3[C@H]2CO)ccc1O [silicristin] | 101% | -3.71%
15 | CCCCc1oc2ccc(NS(C)(=O)=O)cc2c1C(=O)c1ccc(OCCCN(CCCC)CCCC)cc1 [dronedarone] | 102% | -3.59%
16 | CC1(C)OC[C@@H]2O[C@@]3(C(=O)O)OC(C)(C)O[C@H]3[C@@H]2O1 [diprogulic acid] | 105% | -1.25%
17 | Cc1c(C(C)C)c(=O)n(-c2ccccc2)n1C [propyphenazone] | 110% | -2.88%
18 | C=C1C[C@H]2[C@@H]3C=C(C)C4=CC(=O)CC[C@]4(C)[C@H]3CC[C@]2(C)[C@@]1(OC(C)=O)C(C)=O [Melengestrol Acetate] | 119% | 4.39%
19 | CC(C)(CO)[C@@H](O)C(=O)NCCC(=O)O [Pantothenic acid] | 105% | 3.18%
20 | Cc1ccc2c(Br)cc(Br)c(OC(=O)c3ccccc3)c2n1 [broxaldine] | 127% | -0.413%
21 | CC[C@@H](CO)NCCN[C@@H](CC)CO [ethambutol] | 112% | -1.13%
22 | N#Cc1cc(I)c(O)c([N+](=O)[O-])c1 [nitroxinil] | 85.2% | -4.01%
23 | CC(C)c1nc(CN(C)C(=O)N[C@H](C(=O)N[C@@H](Cc2ccccc2)C[C@H](O)[C@H](Cc2ccccc2)NC(=O)OCc2cncs2)C(C)C)cs1 [ritonavir] | 83.1% | -3.42%

Row | SMILES | mCherry [1] | percent effect [2]
24 | CS(=O)(=O)c1cc(C2(NC(=O)c3cncc4c3cnn4-c3ccc(F)cc3)CC2)ccn1 | 49.8% | -9.48%
25 | C[C@@H]1CC(=O)NN=C1c1ccc(NN=C(C#N)C#N)cc1 [levosimendan] | 105% | -12.6%
26 | Cc1ccccc1C(=O)Nc1ccc(C(=O)N2CCCC(O)c3cc(Cl)ccc32)c(C)c1 (stereo not drawn) [tolvaptan] | 114% | -2.57%
27 | O=C1C(CC[S+]([O-])c2ccccc2)C(=O)N(c2ccccc2)N1c1ccccc1 (stereo not drawn) [sulfinpyrazone] | 94.8% | -4.95%
28 | CCOc1ccccc1C(N)=O [ethenzamide] | 93.6% | 3.83%
29 | O=C(Oc1ccc2c(c1)CCCN2C(=O)C(Cl)Cl)c1ccco1 [quinfamide] | 60.2% | -0.455%
30 | CNC1COc2ccccc2C(O)C1 (stereo not drawn) [exepanol] | 91.8% | -6.02%
31 | CC[C@@H](C(=O)[C@@H](C)[C@@H](O)[C@H](C)CCc1ccc(C)c(O)c1C(=O)O)[C@H]1O[C@](CC)([C@H]2CC[C@](O)(CC)[C@H](C)O2)C[C@@H]1C [lasalocid] | 56.4% | -5.45%
32 | CC(=O)SC[C@H](Cc1ccccc1)C(=O)NCC(=O)OCc1ccccc1 [dexecadotril] | 65.3% | -4.49%
33 | CC[C@H]1OC(=O)[C@H](C)[C@@H](O[C@H]2C[C@@](C)(OC)[C@@H](O)[C@H](C)O2)[C@H](C)[C@@H](O[C@@H]2O[C@H](C)C[C@H](N(C)C)[C@H]2O)[C@](C)(O)C[C@@H](C)C(=O)[C@H](C)[C@@H](O)[C@]1(C)O [erythromycin] | 84.7% and 92.1% | -2.13% and -1.19%
34 | CCCCCCCCCCCCCCCC(=O)NCCC[N+](C)(C)CC(=O)[O-] [pendecamaine] | 116% | 1.23%
35 | NC(CO)(CO)CO [trometamol] | 92.7% | 7.44%
36 | CCCCc1nc(Cl)c(CO)n1Cc1ccc(-c2ccccc2-c2nnn[nH]2)cc1 [Losartan potassium] | 240% | -5.33%
37 | N#CC[C@H](C1CCCC1)n1cc(-c2ncnc3[nH]ccc23)cn1 [Ruxolitinib] | 92.3% | -5.5%
38 | CN1C2CCCC1CC(NC(=O)c1nn(C)c3ccccc13)C2 (stereo not drawn) [granisetron] | 117% | 1.85%
39 | CC(C)(S)[C@@H](N)C(=O)O [penicillamine] | 114% | -15.7%
40 | N[C@@H](Cc1cc(I)c(Oc2cc(I)c(O)c(I)c2)c(I)c1)C(=O)O | 109% | 2.49%
41 | C[C@H]1[C@H](OC(=O)CCC(=O)O)O[C@@H]2O[C@@]3(C)CC[C@H]4[C@H](C)CC[C@@H]1[C@@]24OO3 [artesunate] | 52.8% | -9.99%
42 | CN(C)CCN(Cc1ccccc1)c1nc2ccccc2o1 [oxadimedine] | 143% | 1.13%
43 | C[C@H]1O[C@@H](n2cc(F)c(=O)[nH]c2=O)[C@H](O)[C@@H]1O [doxifluridine] | 93.4% | 0.593%
44 | CC(C)NCC(O)COc1ccccc1C1CC1 (stereo not drawn) [procinolol] | 63.7% | -2.13%
45 | CC(C(=O)O)c1ccc(CC2CCCC2=O)cc1 (stereo not drawn) [loxoprofen] | 96.9% | -3.15%
46 | COc1c(C)c2c(c(O)c1C/C=C(\C)CCC(=O)OCCN1CCOCC1)C(=O)OC2 [Mycophenolate mofetil] | 146% | -5.18%

Row | SMILES | mCherry [1] | percent effect [2]
47 | CN(C)CC/C=C1/c2ccccc2COc2ccc(CC(=O)O)cc21 [Olopatadine] | 101% | 0.0519%
48 | CO/N=C(\C(=O)N[C@@H]1C(=O)N2C(C(=O)OCOC(=O)C(C)(C)C)=C(/C=C\c3scnc3C)CS[C@H]12)c1csc(N)n1 | 139% | 1.75%
49 | CN(C)c1cnccn1 | 118% | -4.9%
50 | CCCCn1c(=O)c2c(ncn2CC(C)=O)n(CCCC)c1=O [denbufylline] | 79.3% | -0.497%
51 | Cc1[nH]c(C)c(Cl)c(=O)c1Cl | 110% | 0.4%
52 | O=P(O)(O)O[C@@H]1[C@H](OP(=O)(O)O)[C@H](O)[C@@H](O)[C@H](O)[C@H]1OP(=O)(O)O [atrinositol] | 47.8% | -61.7%
53 | Clc1ccc(Nc2nnc(Cc3ccncc3)c3ccccc23)cc1 [vatalanib] | 78.9% | -0.54%
54 | CCOC(=S)SSC(=S)OCC [dixanthogen] | 66.4% | -2.88%
55 | Cc1cccc(C)c1NC(=O)c1ccccc1C(=O)O [ftaxilide] | 65.2% | -1.93%
56 | NCc1ccccc1Sc1ccccc1CO [bipenamol] | 99.2% | 0.0575%
57 | CC(C)(C)NCC(O)COc1cccc2c1CCC(=O)N2 (stereo not drawn) [carteolol] | 87.3% | -3.97%
58 | Nc1nc2c([nH]1)c(=O)n(CC1CC1)c(=O)n2CC1CC1 [cipamfylline] | 78.2% | -6.59%
59 | Cc1c(CC(=O)O)sc2ccc(Cl)cc12 [tianafac] | 84.3% | -7%
60 | CC(=O)Nc1ccc(S(=O)(=O)c2ccc(NC(C)=O)cc2)cc1 [acedapsone] | 81.4% | 3.41%
61 | Cc1cc2c(cc1CC(=O)c1sccc1S(=O)(=O)Nc1onc(C)c1Cl)OCO2 [Thelin] | 135% | -2.02%
62 | CC[C@]12CCCN3CCc4c(n(c5ccccc45)[C@@](O)(C(=O)OC)C1)[C@@H]32 | 132% | 3.38%
63 | O=C1CN(/N=C/c2ncc(-c3ccc(Br)cc3)o2)C(=O)N1 [azumolene] | 53.2% | -2.16%
64 | CO[C@H](C(=O)[C@@H](O)[C@@H](C)O)[C@@H]1Cc2cc3cc(O[C@H]4C[C@@H](O[C@H]5C[C@@H](O)[C@H](O)[C@@H](C)O5)[C@H](O)[C@@H](C)O4)c(C)c(O)c3c(O)c2C(=O)[C@H]1O[C@H]1C[C@@H](O[C@H]2C[C@@H](O[C@H]3C[C@](C)(O)[C@H](O)[C@@H](C)O3)[C@@H](O)[C@@H](C)O2)[C@H](O)[C@@H](C)O1 [Mithracin] | 17.1% | -14.7%
65 | N=C(N)c1ccc(OCCCCCCOc2ccc(C(=N)N)cc2)cc1 [hexamidine] | 36.5% | 7.8%
66 | CC(=O)OCC(=O)[C@@]1(OC(C)=O)[C@@H](C)C[C@H]2[C@@H]3C[C@H](F)C4=CC(=O)C=C[C@]4(C)[C@@]3(F)[C@@H](O)C[C@@]21C | 102% | -0.12%
67 | N[C@H]1C(O)O[C@H](CO)[C@@H](O)[C@@H]1O (stereo partly drawn) | 108% and 104% | -2.24% and -4.91%
68 | CCCCCCCCCCCCCCCC(=O)OC/C=C(C)/C=C/C=C(C)/C=C/C1=C(C)CCCC1(C)C | 105% | 0.614%
69 | Nc1ccc(S(=O)(=O)Nc2ccccn2)cc1 [sulfapyridine] | 126% | -6.46%
